# Screening data, single-dose tests

Amino acid sequences for entries named in this document (tags omitted). Residues count along the entry.
UniProt Q8IDJ8, 1-583: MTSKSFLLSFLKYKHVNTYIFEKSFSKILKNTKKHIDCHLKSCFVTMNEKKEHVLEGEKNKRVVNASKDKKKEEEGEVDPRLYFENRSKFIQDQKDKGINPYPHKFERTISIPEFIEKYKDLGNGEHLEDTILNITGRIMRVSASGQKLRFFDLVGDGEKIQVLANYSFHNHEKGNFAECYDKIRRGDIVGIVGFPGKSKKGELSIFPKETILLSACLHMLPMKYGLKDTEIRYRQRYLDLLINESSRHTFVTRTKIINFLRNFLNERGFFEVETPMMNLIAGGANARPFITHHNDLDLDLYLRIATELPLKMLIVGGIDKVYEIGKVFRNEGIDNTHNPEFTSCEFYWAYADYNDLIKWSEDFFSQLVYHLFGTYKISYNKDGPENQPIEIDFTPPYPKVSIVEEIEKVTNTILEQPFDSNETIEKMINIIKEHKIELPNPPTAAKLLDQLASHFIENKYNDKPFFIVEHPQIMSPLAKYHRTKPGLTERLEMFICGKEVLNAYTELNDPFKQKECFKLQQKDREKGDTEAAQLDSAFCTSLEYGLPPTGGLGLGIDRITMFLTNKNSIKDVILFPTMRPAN

Data taken from ChEMBL document CHEMBL3988442, “University of Dundee, Small-Polar-MMV Screening Library” (2021).

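Enzyme assay of the cytosolic lysyl-tRNA synthetase in 384-well plates, read by luminescence. Target: Lysine-tRNA ligase, Plasmodium falciparum 3D7 (UniProt Q8IDJ8). Concentration: 30 µM. Higher reads as stronger inhibition, judged from the few compounds that gave an IC50. About 69,000 compounds were tested under these conditions; 0.071% (about 49) showed 50% or more at least once.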

The filed quantity is “Percent Effect” (%).
How 0% and 100% were set is not recorded. Most values in the screen are low, and negative values occur.
This is an unselected part of the compounds tested.

- CCN(C)c1ncnc2c1CCN(C(=O)c1cnccn1)CC2 | 4.194%
- Cc1nc(CN(C)CC2CCCN2c2cccnn2)nc2ccccc12 (centres undefined) | 7.999%
- O=C(NCC(O)c1ccoc1)Nc1c(F)cccc1F (centres undefined) | -0.01168%
- Cc1cc(C)nc(N(C)CCn2ccnc2C)n1 | 0.6658%
- Cc1ccc(OC2(C(=O)NC(C)Cc3ccsc3)CCNCC2)cc1 (centres undefined) | -1.098%
- CC(O)CN1CCC(CNCc2cccc(C(F)(F)F)c2)CC1 (centres undefined) | 0.4587%
- CCC(=O)Nc1ccc2c(c1)C1(CCOCC1)CN2CCF | 5.681%
- CN(C)C(=O)N1CCN(C(=O)Nc2nc(-c3ccccc3)ns2)CC1 | -1.033%
- CCC1CN(C(=O)c2cc(C(C)=O)c(C)[nH]c2=O)CCN1C(C)C (centres undefined) | 2.789%
- CC(c1ccon1)N(C)C(=O)C1CCN(C(=O)C2CCC2)CC1 (centres undefined) | 3.184%
- Cc1nc(N2CCCN(C(=O)c3ccsc3)CC2)c2cnn(C)c2n1 | 3.071%
- CN(C)C(=O)CCNC(=O)c1cnc(-c2ccccc2)nc1 | 3.326%
- O=C(c1ccccc1F)N1CCCC1Cn1c(=O)oc2ccccc21 (centres undefined) | 1.488%
- COCCN1CC[C@]2(CN(C(=O)c3ccc[nH]3)C[C@H]2C)C1=O | 0.3954%
- N#CCCCS(=O)(=O)NC(=O)c1ccccc1F | 11.09%
- Cc1cc(C)n(CC2CCCCN2CC(=O)Nc2nnc(C)s2)n1 (centres undefined) | 4.765%
- CC1CCC(O)(CSc2nnnn2C2CC2)CC1 (centres undefined) | 8.987%
- CN(C)c1cccc(C2CCN(c3ncccn3)CC2)n1 | 0.6102%
- Cc1cccc(C)c1Oc1ncccc1CNC(=O)C1COC(=O)N1 (centres undefined) | -0.6323%
- CNC(=O)C(C)(C)CNC(=O)Nc1ccncc1C | 4.155%
- CCOCC(O)CN1CCN(C(=O)c2ccc(OC)cc2F)CC1 (centres undefined) | -3.698%
- CC(C)c1nc(CNc2ccc(CNS(C)(=O)=O)cc2)cs1 | 3.088%
- Cc1ccc(CSc2nc(N)cc(NCC(=O)N3CCNCC3)n2)cc1 | 1.718%
- Cc1c(C(=O)N2CCSCC2)sc2nc(C(F)(F)F)ccc12 | 4.683%
- CCN1CCC(N2CCN(C)C3(CCC(=O)N(CCOC)CC3)C2)CC1 (centres undefined) | 9.13%
- CCN1CCCC(CN2CCn3nc(CNC(=O)N(C)C)cc3C2)C1 (centres undefined) | -4.915%
- Cn1ccnc1CCNS(=O)(=O)c1cccnc1 | -2.291%
- CC(C)c1cc(C(=O)N2CCN(Cc3ccco3)CC2)n[nH]1 | -4.216%
- CC(C)c1nnc(CCC(=O)N2CCOC(c3cnccn3)C2)o1 (centres undefined) | 1.431%
- Cn1cccc1C(=O)NCc1cn2c(n1)CN(C(=O)c1ccsc1)CC2 | 4.464%
- FC(F)CN1CCC(NCCc2ccc(-n3cccn3)cc2)CC1 | 5.877%
- CCOc1ccc(S(=O)(=O)N(CCOC)Cc2ccoc2)cc1F | -0.3159%
- CCCNC(=O)c1cccc(CNCc2csc(C(C)(C)C)n2)c1 | 0.3089%
- COc1cccc([C@@H]2CCN(Cc3c[nH]c(C)n3)C[C@H]2O)c1 | 2.06%
- O=C(NCCCn1nc2ccccn2c1=O)NCCC1CCC1 | 6.437%
- O=C(CCn1c(C(F)F)cc2cccnc21)NC1CC1 | 1.656%
- CN1CCN(Cc2nnc(C3CCN(S(C)(=O)=O)CC3)n2C)CC1 | -1.706%
- CCc1cc(C(=O)N2CCC(Nc3ccc(C)nn3)CC2)sc1C | 3.816%
- CC(C)C(NC(=O)c1cnc(N2CCOCC2)nc1)c1cccs1 (centres undefined) | 0.515%
- N#CCc1ccc(OCC(=O)NS(=O)(=O)c2cccs2)cc1 | -2.315%
- COCC(=O)N1CCC2(CC1)CN(c1ncccn1)CCO2 | 1.503%
- CNS(=O)(=O)CC1CCCN1c1ccc(Cl)cn1 (centres undefined) | 5.46%